# Laboratory results from the odorant receptor screen of Mainland et al. (2015).
# Several values for one entry are separate records, joined by “and”; a condition that tells them apart may be missing. Equal entries are not always repeated. This is one part of the list. Each value is one well over the wells without odorant, computed here; the data are noisy.
# What was measured:
# Assay in all cases: odorant receptor activation (CRE luciferase / Renilla) (fold of no-odor wells); higher = more activation
# Conditions in all cases: 100 µM
# [1] = test system: OR2AG2 Y28C/R54P/R299G clone 1486
# OR2AJ1 M1V clone 1448 = test system: OR2AJ1 M1V clone 1448
# OR2AK2 V188M clone 1415 = test system: OR2AK2 V188M clone 1415
# OR2AP1 clone 1256 = test system: OR2AP1 clone 1256
# OR2AT4 clone 1522 = test system: OR2AT4 clone 1522
# OR2B11 clone 1418 = test system: OR2B11 clone 1418
# OR2B2 clone 1333 = test system: OR2B2 clone 1333
# OR2B2 clone 1544 = test system: OR2B2 clone 1544
# OR2B3 clone 1063 = test system: OR2B3 clone 1063
# OR2B6 clone 1436 = test system: OR2B6 clone 1436
# OR2B8 Indel clone 1076 = test system: OR2B8 Indel clone 1076
# OR2C1 C149W clone 1282 = test system: OR2C1 C149W clone 1282
# [2] = test system: OR2C1 G16S/C149W/R229H clone 1408
# [3] = test system: OR2C1 P58S/C149W clone 1409
# OR2C1 clone 1406 = test system: OR2C1 clone 1406
# OR2C1 clone 1407 = test system: OR2C1 clone 1407
# [4] = test system: OR2C3 T20A/P68S/L289V clone 1454
# OR2D2 clone 1235 = test system: OR2D2 clone 1235
# OR2D3 L66I clone 1381 = test system: OR2D3 L66I clone 1381
# OR2F1 clone 1082 = test system: OR2F1 clone 1082
SMILES,odorant receptor activation [1],odorant receptor activation (OR2AJ1 M1V clone 1448),odorant receptor activation (OR2AK2 V188M clone 1415),odorant receptor activation (OR2AP1 clone 1256),odorant receptor activation (OR2AT4 clone 1522),odorant receptor activation (OR2B11 clone 1418),odorant receptor activation (OR2B2 clone 1333),odorant receptor activation (OR2B2 clone 1544),odorant receptor activation (OR2B3 clone 1063),odorant receptor activation (OR2B6 clone 1436),odorant receptor activation (OR2B8 Indel clone 1076),odorant receptor activation (OR2C1 C149W clone 1282),odorant receptor activation [2],odorant receptor activation [3],odorant receptor activation (OR2C1 clone 1406),odorant receptor activation (OR2C1 clone 1407),odorant receptor activation [4],odorant receptor activation (OR2D2 clone 1235),odorant receptor activation (OR2D3 L66I clone 1381),odorant receptor activation (OR2F1 clone 1082)
COc1ccccc1O [guaiacol],0.728 and 1.03,0.83,0.824,0.865 and 0.938,0.675 and 1.32,0.936,0.766 and 0.876,1.01 and 1.02,0.901,0.949,1.24,1.04 and 1.06,1.05,0.906,0.928,0.756,0.979,0.489,0.829,1.84
C=C(C)C1CC=CCC1 (stereo not given) [r-limonene],1.05 and 0.962 and 0.929,1.16 and 0.894 and 0.687,1.3 and 0.985,0.87 and 0.701,1.02 and 1.16 and 0.798,1.72 and 0.705,0.731 and 0.332,1.14,1.2 and 1.64,1.24 and 0.969,1.11 and 1.46,1.14 and 1.11,1.24 and 1.13,0.992 and 1.28,0.949 and 0.848,1.2 and 0.974,0.938,1.25,1.31 and 0.836,1.14 and 1.92
CC(=O)c1ccccc1 [acetophenone],1.08 and 0.71,1.07 and 0.561,0.876,1.35,1.12 and 0.813,1.04,0.617,–,1.13,1.09,1.6,1.85,1.08,1.09,1.07,1.64,–,–,0.652,1.97
CC(=O)C(C)=O [diacetyl],1.36,1.12,1.23,1.06,1.57,0.902,1.18,1.46,1.16,1.56,0.895,1.33,0.951,0.954,0.885,1.2,0.821,0.81,1.24,1.12
CC(C)CC(=O)O [isovaleric acid],0.741,0.71,0.754,0.631,1.06,0.798,0.871,0.937,1.27,0.846,1.12,1.12,0.874,0.865,0.923,1.17,0.874,1.12,0.786,0.912
C=CCSCC=C [diallyl sulfide],1.39,1.04,1.11,0.903,1.34,0.914,1.15,1.59,0.895,1.45,0.912,1.06,0.958,0.942,0.779,1.02,0.813,0.983,1.15,1.19
CCCCCCCCOC(C)=O [octyl acetate],0.977,0.843,0.769,0.946,0.968,0.961,1.32,1.15,0.893,0.801,0.857,1.18,0.889,0.849,1,1.08,0.963,0.994,0.969,0.79
O=C1CCCCC1 [Cyclohexanone],1.31 and 1.07,0.914 and 0.695,0.81,0.554,1.34 and 1.01,1.23,0.751,–,1.28,0.961,1.5,1.08,0.809,1.3,0.733,0.774,–,–,0.836,2.8
CCCCCCCOC(C)=O [heptyl acetate],0.572 and 1.23,1.04,1.21,0.747 and 1.25,0.77 and 1.62,0.998,0.823 and 0.789,0.763 and 1.02,0.612,0.883,1.03,0.806 and 0.81,1.19,1.17,1.3,0.919,0.993,0.5,0.996,1.83
C=C(C)C1CCC2=CC(=O)CC(C)C2(C)C1 (stereo not given) [amyl laurate],–,–,–,–,–,–,–,–,–,–,–,–,–,–,–,–,2.07,1.06,–,–
C=C(C)C1CC=C(C)C(=O)C1 (stereo not given) [r-carvone],0.871,1.14,1.26,0.832,0.946,1.79,0.713,0.884,1.08,1.08,0.738,1.82,1.45,1.26,1.05,2.11,0.973,0.851,1.28,0.968
CCCCCCCCCCC=O [undecanal],0.856,0.968,1.28,0.945,1.09,1.05,1.06,1.04,1.1,1.08,0.827,1.14,1.28,0.941,0.95,1.17,1.13,1.04,0.916,1.04
CC1=CCC(C(C)(C)O)CC1 (stereo not given) [terpineol],0.763,1.03,1.05,0.973,1.01,1.15,0.908,0.913,1.06,1.06,0.92,1.09,1.17,1.05,0.891,1.3,1.05,1.09,1.15,1.05
COc1cc(C=O)ccc1O [vanillin],0.963,0.887,0.95,1.07,1.03,1.15,0.994,0.859,1.11,0.887,0.879,1.23,0.995,1.16,0.843,0.956,1.06,0.868,0.943,1.01
CC(C)(O)CCCC1=CCC(C=O)CC1 (stereo not given) [lyral],–,–,–,–,–,–,–,–,–,–,–,–,–,–,–,–,1.07,1.13,–,–
CCCCCCC=O [heptaldehyde],–,1.05 and 0.745 and 0.797,1.1 and 0.762,0.736 and 0.651 and 0.884,–,1.03 and 0.75,0.394 and 1.18 and 0.906,0.864 and 0.806,1.15 and 1,0.971 and 0.706,1.85 and 0.827,0.831 and 0.87 and 1.21,1.18 and 1,1.25 and 0.823,1.06 and 0.837,1.19 and 0.849,0.983,0.555,0.797 and 0.872,1.19 and 2.72

# Limited to odorant receptor activation (OR2D3 L66I clone 1381) and odorant receptor activation [1], for two of the compounds above:
SMILES	odorant receptor activation (OR2D3 L66I clone 1381)	odorant receptor activation [1]
C=C(C)C1CC=CCC1 (stereo not given) [r-limonene]	1.31 and 0.836	1.05 and 0.962 and 0.929
CC(=O)c1ccccc1 [acetophenone]	0.652	1.08 and 0.71

# The results go on:

SMILES,odorant receptor activation [1],odorant receptor activation (OR2AJ1 M1V clone 1448),odorant receptor activation (OR2AK2 V188M clone 1415),odorant receptor activation (OR2AP1 clone 1256),odorant receptor activation (OR2AT4 clone 1522),odorant receptor activation (OR2B11 clone 1418),odorant receptor activation (OR2B2 clone 1333),odorant receptor activation (OR2B2 clone 1544),odorant receptor activation (OR2B3 clone 1063),odorant receptor activation (OR2B6 clone 1436),odorant receptor activation (OR2B8 Indel clone 1076),odorant receptor activation (OR2C1 C149W clone 1282),odorant receptor activation [2],odorant receptor activation [3],odorant receptor activation (OR2C1 clone 1406),odorant receptor activation (OR2C1 clone 1407),odorant receptor activation [4],odorant receptor activation (OR2D2 clone 1235),odorant receptor activation (OR2D3 L66I clone 1381),odorant receptor activation (OR2F1 clone 1082)
CC12C=CCC1C1CCC3CC(=O)CCC3(C)C1CC2 (stereo not given) [androstenone],1.14,1.17,0.982,1.17,1.27,1.37,1.07,1.27,5.31,1.6,2.64,0.96,1.27,1.77,1.03,1.04,–,–,0.424,1.58
CC(C)(C)c1ccc(CCC=O)cc1 [bourgeonal],0.935,0.122,0.218,0.632,0.899,0.3,0.574,0.871,1.03,0.139,0.918,0.646,0.292,0.299,0.274,0.255,–,–,0.232,0.949
CC(=O)OCC=C(C)CCC=C(C)C [geranyl acetate],0.618 and 1.67,1.02,0.975,0.998 and 1,–,1.13,0.877 and 1.64,1.08 and 1.3,1.4,1.08,1.33,0.877 and 1,1.28,0.951,1.05,0.895,1.39,0.953,1.06,12
CCCCCC(C)=O [2-heptanone],0.99 and 0.668,0.838 and 0.573,0.998,1.69,0.91 and 0.673,0.63,1.29,–,0.576,1,1.71,1.3,1.09,1.17,0.855,1.09,–,–,0.744,0.979
CCCCCCCC=CC=O [2-decenal],1.76,1.09,1.14,1.94,1.88,1.36,0.587,1.58,10.6,1.12,5.28,0.844,1.15,1.13,1.86,1.04,1.44,1.02,0.688,4.38
CCCCCOC(C)=O [n-amyl acetate],0.962 and 0.946,0.989 and 0.8,0.776,0.692,1.1 and 0.774,0.547,0.476,–,2.09,0.99,1.2,1.2,0.829,1.08,0.735,0.841,0.812,1.26,0.735,2.29
COC(=O)c1ccccc1 [methyl benzoate],1 and 1.06,1.15 and 0.842,0.797,0.579,1.34 and 1.09,0.497,0.692,–,1.99,0.844,2.38,1.24,1.01,1.02,0.881,0.897,–,–,0.87,2.07
O=C1CCCCCCCCCCCCCCO1 [pentadecalactone],0.758,1.22,1.18,0.717,0.952,1.23,0.538,0.846,0.749,1.24,1.02,0.811,1.27,1.17,0.922,1.28,1.02,0.934,1.21,0.868
CC1=NC(C)SC1C (stereo not given),1.24 and 1.11,1.1 and 0.83,1,2.02,0.992 and 0.897,0.824,0.998,–,1.01,1.07,1.74,2.29,1.31,1.28,1.1,1.4,–,–,0.905,1.09
CC(C)CCC(=O)O [4-methylvaleric acid],0.886,1.03,0.886,1.16,1.3,1.42,1.24,0.969,4.34,1.11,2.26,0.896,1.36,1.54,1.28,1.09,0.908,0.832,1.02,1.14
CC1COCc2cc3c(cc21)C(C)(C)C(C)C3(C)C (stereo not given) [galaxolide],2.34 and 3.82,3.27,3.55,–,3.79 and 6.64,2.51,–,–,4.01,3.03,1.91,0.985 and 1.21,2.55,2.19,2.71,2.07,2.1 and 1.08,–,4.44,2.03
CC(C)C=O [isobutyraldehyde],0.92 and 1.02,0.882,0.722,1.07 and 0.729,0.973 and 1.03,0.815,1.09 and 0.75,0.927 and 1.06,0.76,0.841,0.952,0.9 and 0.993,1.01,0.841,0.793,0.855,0.713,0.979,0.712,8.18
CC12C=CCC1C1CCC3=CC(=O)CCC3(C)C1CC2 (stereo not given) [androstadienone],0.799 and 1.26,0.891,0.808,0.711 and 0.903,0.753 and 2.01,1.02,1.19 and 0.929,1.09 and 1.12,1.2,0.93,1.87,1.04 and 1,1.11,0.924,0.95,0.835,–,–,0.791,4.46
CCC1(O)C2(C)CCC(C2)C1(C)C (stereo not given) [2-ethylfenchol],1.15,0.836,1.04,1.09,1.34,0.999,0.712,1.21,10.8,1.22,4.4,1.25,1.23,1.47,0.977,1.05,0.891,0.718,1.34,2.38
CCCCCCCC=O [octyl aldehyde],0.854,0.847,0.736,0.943,0.976,0.81,1.15,0.97,1.06,0.691,1.02,1.4,0.731,0.783,0.904,0.843,0.82,0.948,0.734,0.881
